Some of the results follow.
Compound: COc1ccc(Cn2ccc3ccc(C(=O)NO)cc32)cc1
Experiment: dose-dependent thermal stabilisation call (2D-TPP, DLPTP, 10% FDR) (binary (1 = stabilised)); higher = stabilised by the compound
Settings: system: HL-60 intact cells; concentration range 0.04-10 µM

Sequences of proteins named here, by UniProt entry; tags and fusion partners are left off. A change or cut given only in a name is not applied to a line headed by its entry.
UniProt Q6GMV2: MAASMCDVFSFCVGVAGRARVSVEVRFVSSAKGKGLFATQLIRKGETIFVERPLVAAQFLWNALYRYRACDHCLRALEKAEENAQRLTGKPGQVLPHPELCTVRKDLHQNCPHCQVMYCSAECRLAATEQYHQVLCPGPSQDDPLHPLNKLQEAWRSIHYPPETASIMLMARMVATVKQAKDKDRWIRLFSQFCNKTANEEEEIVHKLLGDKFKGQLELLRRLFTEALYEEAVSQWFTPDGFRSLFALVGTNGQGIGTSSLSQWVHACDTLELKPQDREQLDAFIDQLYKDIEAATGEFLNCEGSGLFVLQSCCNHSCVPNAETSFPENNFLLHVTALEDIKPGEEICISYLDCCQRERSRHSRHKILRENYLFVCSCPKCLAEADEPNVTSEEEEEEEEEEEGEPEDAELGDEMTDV
UniProt Q9HB58: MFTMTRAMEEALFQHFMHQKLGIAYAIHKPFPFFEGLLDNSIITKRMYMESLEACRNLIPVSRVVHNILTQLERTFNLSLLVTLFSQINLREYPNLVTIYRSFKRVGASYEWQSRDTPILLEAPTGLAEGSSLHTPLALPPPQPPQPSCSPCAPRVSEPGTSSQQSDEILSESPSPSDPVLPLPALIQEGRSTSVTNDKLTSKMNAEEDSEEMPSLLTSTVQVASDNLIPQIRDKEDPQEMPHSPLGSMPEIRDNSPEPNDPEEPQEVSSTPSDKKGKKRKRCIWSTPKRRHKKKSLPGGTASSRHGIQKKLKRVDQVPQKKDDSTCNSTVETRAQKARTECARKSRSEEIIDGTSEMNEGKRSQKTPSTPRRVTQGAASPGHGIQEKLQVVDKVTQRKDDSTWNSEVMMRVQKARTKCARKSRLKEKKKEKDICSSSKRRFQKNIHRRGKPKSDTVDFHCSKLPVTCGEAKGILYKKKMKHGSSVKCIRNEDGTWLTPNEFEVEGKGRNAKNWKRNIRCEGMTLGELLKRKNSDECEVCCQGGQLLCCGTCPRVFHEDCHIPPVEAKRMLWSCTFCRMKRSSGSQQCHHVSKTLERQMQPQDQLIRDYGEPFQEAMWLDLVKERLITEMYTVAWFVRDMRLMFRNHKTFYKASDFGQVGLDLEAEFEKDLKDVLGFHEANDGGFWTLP
UniProt P42226: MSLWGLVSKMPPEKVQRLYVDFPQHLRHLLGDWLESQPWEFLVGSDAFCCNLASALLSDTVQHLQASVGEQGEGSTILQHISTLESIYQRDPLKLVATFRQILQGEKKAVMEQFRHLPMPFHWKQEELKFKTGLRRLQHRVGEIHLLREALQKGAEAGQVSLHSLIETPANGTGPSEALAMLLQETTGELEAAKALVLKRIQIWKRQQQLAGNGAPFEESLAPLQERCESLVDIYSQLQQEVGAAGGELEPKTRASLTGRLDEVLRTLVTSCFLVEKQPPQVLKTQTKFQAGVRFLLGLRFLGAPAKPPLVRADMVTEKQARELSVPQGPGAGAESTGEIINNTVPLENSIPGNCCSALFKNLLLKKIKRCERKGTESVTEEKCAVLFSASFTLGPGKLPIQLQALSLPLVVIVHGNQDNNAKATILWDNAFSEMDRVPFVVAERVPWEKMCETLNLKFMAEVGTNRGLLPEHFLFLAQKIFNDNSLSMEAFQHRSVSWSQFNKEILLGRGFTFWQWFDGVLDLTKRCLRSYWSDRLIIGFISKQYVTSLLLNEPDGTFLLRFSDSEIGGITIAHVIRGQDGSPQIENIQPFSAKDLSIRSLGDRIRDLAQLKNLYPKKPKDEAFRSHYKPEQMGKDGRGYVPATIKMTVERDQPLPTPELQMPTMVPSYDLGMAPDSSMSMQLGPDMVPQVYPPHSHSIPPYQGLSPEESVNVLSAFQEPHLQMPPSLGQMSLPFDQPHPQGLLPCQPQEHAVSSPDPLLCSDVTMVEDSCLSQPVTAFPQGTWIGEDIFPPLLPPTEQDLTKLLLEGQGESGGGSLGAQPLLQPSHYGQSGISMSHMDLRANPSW
UniProt P52788: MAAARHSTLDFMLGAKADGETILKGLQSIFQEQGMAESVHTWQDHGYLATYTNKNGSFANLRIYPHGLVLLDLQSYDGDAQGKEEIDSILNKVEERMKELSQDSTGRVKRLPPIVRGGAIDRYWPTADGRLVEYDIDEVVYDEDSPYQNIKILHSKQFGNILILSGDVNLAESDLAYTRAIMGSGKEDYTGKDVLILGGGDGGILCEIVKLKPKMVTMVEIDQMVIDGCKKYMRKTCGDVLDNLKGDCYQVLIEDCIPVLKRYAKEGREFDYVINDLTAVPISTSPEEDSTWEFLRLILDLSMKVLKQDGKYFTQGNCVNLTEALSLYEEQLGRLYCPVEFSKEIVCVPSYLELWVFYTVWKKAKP
UniProt Q9NQZ5: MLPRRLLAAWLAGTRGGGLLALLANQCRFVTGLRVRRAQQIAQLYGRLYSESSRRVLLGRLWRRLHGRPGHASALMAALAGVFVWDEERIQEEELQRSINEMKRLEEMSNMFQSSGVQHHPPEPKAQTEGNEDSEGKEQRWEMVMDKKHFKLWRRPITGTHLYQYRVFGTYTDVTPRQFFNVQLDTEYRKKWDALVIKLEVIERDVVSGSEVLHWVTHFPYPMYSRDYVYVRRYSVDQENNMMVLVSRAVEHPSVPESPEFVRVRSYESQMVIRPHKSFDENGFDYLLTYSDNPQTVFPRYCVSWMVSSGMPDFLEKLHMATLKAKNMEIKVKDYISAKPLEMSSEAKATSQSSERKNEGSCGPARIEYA
UniProt P08621, whole entry: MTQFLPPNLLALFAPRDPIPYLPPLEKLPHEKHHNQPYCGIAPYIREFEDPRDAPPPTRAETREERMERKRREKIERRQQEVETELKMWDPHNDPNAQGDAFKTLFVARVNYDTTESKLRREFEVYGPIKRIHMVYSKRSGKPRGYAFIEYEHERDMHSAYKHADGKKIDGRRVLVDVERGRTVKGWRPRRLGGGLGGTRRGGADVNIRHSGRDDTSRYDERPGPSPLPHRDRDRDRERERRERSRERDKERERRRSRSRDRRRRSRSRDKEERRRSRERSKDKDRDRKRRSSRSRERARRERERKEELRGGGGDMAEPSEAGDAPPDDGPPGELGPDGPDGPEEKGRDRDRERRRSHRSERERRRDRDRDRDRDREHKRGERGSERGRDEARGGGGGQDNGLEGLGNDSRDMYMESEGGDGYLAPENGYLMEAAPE
UniProt Q9HBM1: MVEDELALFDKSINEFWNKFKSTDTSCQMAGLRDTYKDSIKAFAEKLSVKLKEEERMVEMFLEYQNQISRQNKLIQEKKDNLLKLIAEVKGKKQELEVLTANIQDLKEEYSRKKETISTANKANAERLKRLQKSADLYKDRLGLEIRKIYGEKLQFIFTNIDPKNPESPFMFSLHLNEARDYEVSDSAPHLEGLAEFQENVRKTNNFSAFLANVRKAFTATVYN
UniProt O15260: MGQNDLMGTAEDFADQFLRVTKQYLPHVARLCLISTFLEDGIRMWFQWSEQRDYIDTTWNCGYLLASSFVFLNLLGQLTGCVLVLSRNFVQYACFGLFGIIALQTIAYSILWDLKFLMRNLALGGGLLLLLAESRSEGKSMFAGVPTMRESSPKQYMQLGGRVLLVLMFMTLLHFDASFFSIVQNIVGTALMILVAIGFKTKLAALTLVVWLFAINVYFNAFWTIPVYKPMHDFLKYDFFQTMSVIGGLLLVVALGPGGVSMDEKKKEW
UniProt P62306, whole entry, looked up: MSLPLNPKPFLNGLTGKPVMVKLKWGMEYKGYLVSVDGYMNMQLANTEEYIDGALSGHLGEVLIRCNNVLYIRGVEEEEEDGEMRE
UniProt O75643, whole entry: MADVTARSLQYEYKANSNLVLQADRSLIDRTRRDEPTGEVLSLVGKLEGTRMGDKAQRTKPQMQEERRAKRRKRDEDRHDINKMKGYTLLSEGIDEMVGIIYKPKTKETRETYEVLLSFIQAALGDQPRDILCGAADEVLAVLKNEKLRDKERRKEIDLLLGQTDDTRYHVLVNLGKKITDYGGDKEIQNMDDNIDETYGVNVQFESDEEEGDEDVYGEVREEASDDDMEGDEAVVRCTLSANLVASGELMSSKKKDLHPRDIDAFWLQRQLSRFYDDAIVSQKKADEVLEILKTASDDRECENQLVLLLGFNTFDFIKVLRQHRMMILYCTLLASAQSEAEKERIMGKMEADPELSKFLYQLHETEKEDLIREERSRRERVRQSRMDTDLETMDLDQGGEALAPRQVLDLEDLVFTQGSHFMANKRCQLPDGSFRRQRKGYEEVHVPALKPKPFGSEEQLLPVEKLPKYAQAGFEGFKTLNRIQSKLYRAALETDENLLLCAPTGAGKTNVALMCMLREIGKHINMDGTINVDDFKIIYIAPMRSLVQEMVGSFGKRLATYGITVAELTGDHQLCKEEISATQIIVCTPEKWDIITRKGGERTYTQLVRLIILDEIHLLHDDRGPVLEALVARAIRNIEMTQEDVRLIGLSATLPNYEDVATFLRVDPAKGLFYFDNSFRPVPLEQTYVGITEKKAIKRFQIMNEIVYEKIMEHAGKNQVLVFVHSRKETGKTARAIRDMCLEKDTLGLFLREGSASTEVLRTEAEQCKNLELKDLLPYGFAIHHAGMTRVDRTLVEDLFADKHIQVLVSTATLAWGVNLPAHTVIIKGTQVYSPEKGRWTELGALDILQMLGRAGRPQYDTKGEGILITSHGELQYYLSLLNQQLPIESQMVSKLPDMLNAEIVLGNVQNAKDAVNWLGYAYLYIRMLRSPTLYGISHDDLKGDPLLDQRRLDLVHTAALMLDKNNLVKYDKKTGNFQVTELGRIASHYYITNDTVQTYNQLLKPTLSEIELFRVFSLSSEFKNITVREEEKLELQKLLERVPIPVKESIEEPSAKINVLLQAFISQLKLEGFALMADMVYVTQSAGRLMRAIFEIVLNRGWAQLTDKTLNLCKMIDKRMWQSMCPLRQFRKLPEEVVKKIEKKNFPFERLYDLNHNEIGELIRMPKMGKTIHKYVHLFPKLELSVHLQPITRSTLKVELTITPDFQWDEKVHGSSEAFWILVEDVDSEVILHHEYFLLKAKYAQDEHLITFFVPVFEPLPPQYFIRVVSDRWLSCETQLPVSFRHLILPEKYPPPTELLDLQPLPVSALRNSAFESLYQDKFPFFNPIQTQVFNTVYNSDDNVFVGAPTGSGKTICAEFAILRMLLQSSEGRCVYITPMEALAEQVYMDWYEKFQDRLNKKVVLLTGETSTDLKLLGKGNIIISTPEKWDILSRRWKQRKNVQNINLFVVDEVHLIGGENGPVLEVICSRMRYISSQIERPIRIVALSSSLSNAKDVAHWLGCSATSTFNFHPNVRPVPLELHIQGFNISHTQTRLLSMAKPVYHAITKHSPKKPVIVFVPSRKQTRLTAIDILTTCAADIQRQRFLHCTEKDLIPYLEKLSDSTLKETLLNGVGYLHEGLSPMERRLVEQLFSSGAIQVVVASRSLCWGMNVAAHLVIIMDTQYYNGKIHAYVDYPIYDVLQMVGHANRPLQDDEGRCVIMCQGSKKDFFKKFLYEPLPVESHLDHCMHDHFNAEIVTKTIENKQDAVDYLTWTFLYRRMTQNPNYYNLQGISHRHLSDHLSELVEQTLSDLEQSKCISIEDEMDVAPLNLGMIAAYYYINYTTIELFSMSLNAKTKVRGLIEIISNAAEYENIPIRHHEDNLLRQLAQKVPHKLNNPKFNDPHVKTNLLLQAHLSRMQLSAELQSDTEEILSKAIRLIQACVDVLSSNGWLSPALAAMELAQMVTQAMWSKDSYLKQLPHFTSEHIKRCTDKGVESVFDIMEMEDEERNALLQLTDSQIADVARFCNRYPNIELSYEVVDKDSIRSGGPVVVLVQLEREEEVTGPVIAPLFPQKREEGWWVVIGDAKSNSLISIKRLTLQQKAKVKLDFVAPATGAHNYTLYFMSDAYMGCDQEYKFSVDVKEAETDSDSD
UniProt Q9NP77: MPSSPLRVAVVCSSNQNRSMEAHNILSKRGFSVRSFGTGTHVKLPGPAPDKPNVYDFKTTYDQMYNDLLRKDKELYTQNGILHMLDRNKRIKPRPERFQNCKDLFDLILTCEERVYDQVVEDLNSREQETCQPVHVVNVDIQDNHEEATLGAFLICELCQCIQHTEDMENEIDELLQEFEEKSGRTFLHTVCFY
UniProt P30626: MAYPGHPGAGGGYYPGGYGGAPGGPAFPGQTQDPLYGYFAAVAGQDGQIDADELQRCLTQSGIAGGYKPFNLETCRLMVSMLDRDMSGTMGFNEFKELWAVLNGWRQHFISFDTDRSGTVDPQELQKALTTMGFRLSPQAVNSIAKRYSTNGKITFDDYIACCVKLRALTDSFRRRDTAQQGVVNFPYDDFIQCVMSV
UniProt Q8WUJ0: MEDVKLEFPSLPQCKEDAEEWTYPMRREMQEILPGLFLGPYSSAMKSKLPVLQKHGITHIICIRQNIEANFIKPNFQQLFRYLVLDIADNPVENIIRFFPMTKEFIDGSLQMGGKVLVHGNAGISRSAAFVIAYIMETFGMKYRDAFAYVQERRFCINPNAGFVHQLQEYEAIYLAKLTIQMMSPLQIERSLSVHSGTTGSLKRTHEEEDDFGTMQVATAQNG
UniProt P62318, whole entry: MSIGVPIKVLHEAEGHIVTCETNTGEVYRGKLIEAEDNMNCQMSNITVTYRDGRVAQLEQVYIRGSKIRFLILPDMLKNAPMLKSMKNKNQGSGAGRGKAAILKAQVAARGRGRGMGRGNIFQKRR

Target	dose-dependent thermal stabilisation call
SMYD5 (UniProt Q6GMV2)	inactive: 0
STRAP (UniProt Q9Y3F4)	inactive: 0
SP110 (UniProt Q9HB58)	inactive: 0
STAU2 (UniProt Q9NUL3)	inactive: 0
SMARCA2 (UniProt P51531)	inactive: 0
SNRPD2 (UniProt P62316)	inactive: 0
SNAP23 (UniProt O00161)	active: 1
STAT6 (UniProt P42226)	inactive: 0
SMS (UniProt P52788)	inactive: 0
SNX17 (UniProt Q15036)	inactive: 0
SPTLC1 (UniProt O15269)	inactive: 0
SLK (UniProt Q9H2G2)	inactive: 0
SSR1 (UniProt P43307)	inactive: 0
SP3 (UniProt Q02447)	inactive: 0
STARD7 (UniProt Q9NQZ5)	inactive: 0
SNRNP70 (UniProt P08621)	inactive: 0
STT3B (UniProt Q8TCJ2)	inactive: 0
SPC25 (UniProt Q9HBM1)	inactive: 0
SURF4 (UniProt O15260)	inactive: 0

A few values from the entries so far.
Value of SLK (UniProt Q9H2G2) under dose-dependent thermal stabilisation call: inactive: 0
Value of SURF4 (UniProt O15260) under dose-dependent thermal stabilisation call: inactive: 0

Going on with the list.

Target	dose-dependent thermal stabilisation call
SNRPF (UniProt P62306)	inactive: 0
SUCLA2 (UniProt Q9P2R7)	inactive: 0
SNX4 (UniProt O95219)	inactive: 0
STIM1 (UniProt Q13586)	inactive: 0
SSR3 (UniProt Q9UNL2)	inactive: 0
SNRNP200 (UniProt O75643)	inactive: 0
TAF1 (UniProt P21675)	inactive: 0
STAT5B (UniProt P51692)	inactive: 0
SLC9A3R1 (UniProt O14745)	inactive: 0
SSU72 (UniProt Q9NP77)	inactive: 0
SRI (UniProt P30626)	inactive: 0
STX8 (UniProt Q9UNK0)	inactive: 0
SYNGR2 (UniProt O43760)	inactive: 0
STYX (UniProt Q8WUJ0)	inactive: 0
SNRPD3 (UniProt P62318)	inactive: 0
SMYD2 (UniProt Q9NRG4)	inactive: 0
SMCHD1 (UniProt A6NHR9)	inactive: 0
SUCLG2 (UniProt Q96I99)	inactive: 0
